# Measurements reported in patent publication US20260062479A1.
# The chains behind the UniProt entries cited, without tags or fusion partners. Where a name states a change or a piece, a line headed by the entry shows the natural chain unless it says otherwise.
# UniProt Q13488: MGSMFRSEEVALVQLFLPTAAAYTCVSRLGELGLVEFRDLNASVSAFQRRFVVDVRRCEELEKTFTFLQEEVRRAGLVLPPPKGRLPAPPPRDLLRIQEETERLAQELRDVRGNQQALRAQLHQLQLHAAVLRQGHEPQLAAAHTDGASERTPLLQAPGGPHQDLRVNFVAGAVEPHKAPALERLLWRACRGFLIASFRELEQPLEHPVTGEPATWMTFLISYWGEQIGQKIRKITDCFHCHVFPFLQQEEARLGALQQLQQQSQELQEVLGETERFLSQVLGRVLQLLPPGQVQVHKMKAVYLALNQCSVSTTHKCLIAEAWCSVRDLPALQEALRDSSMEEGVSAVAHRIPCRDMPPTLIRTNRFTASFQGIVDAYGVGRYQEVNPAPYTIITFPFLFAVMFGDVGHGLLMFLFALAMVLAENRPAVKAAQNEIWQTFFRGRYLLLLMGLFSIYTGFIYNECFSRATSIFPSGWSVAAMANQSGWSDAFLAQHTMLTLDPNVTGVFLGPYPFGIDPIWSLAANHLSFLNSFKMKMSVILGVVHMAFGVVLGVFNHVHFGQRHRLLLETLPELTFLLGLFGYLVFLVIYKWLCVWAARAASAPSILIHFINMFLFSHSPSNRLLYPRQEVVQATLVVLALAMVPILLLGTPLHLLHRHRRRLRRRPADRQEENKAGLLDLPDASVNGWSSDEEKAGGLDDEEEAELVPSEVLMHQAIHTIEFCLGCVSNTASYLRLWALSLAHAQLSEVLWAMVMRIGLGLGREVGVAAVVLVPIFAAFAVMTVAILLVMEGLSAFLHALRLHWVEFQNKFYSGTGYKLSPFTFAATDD
# These are yes or no findings as the source states them, for the method shown. Binding calls can cover weak binding; strength is not graded here.
# Target: largest TIRC7 extracellular domain (T-cell immune response cDNA 7) (human) (UniProt Q13488)
# Test: SPR, Biacore T200
row,binding,Binder
1,binds,"cAB1459-10.0 (antibody, V domains shown) VH: QVQLVQSGAEVKKPGASVKVSCKASGYTFTTYVMHWVRQAPGKGLEWMGYINPYNDGTNYNEKFKGRVTMTEDTSTDTAYMELSSLRSEDTAVYYCAEFITKTVGGSNWYLDVWGQGTTVTVSS VL: DIQLTQSPSFLSASVGDRVTITCSASSSISYIHWFQQKPGKAPKRWIYDTSKLPSGVPSRFSGSGSGTEYTLTISSLQPEDFATYYCHQRSSYTWTFGGGTKLEIK"
2,binds,"cAB1467-10.0 (antibody, V domains shown) VH: QVQLVQSGAEVKKPGASVKVSCKASGYTFTTYVMHWVRQAPGKGLEWMGYINPYNDGTNYNEKFKGRVTLTSDKSTSTAYMELSSLRSEDTAVYYCAEFITKTVGGSNWYLDVWGQGTTVTVSS VL: DIQLTQSPSFLSASVGDRVTITCSASSSISYIHWFQQKPGKAPKRWIYDTSKLPSGVPSRFSGSGSGTEYTLTISSLQPEDFATYYCHQRSSYTWTFGGGTKLEIK"
3,binds,"cAB1468-10.0 (antibody, V domains shown) VH: QVQLVQSGAEVKKPGASVKVSCKASGYTFTTYVMHWVRQAPGKGLEWMGYINPYNDGTNYNEKFKGRVTLTSDKSTSTAYMELSSLRSEDTAVYYCAEFITKTVGGSNWYLDVWGQGTTVTVSS VL: EIVLTQSPATLSLSPGERATLSCSASSSISYIHWYQQKPGQAPRRLIYDTSKLPSGIPARFSGSGSGTDFTLTISSLEPEDFAVYYCHQRSSYTWTFGGGTKLEIK"
